Laboratory results: PubChem BioAssay AID1224828 (NIAID, 2016)

Purpose: 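Knock-downs that increase or decrease LPS-induced p65 nuclear translocation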 (primary screen)
System: mouse RAW264.7 G9 macrophage reporter cells (GFP-p65, Tnf promoter-mCherry)
Reagent: siRNA pool against mouse genes, 100 nM
Time to read-out: 2 days siRNA transfection, then 40 min LPS before fixation
Treatment: LPS (Salmonella minnesota R595) at 10 ng/ml
Detection: 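Imaged p65 nuclear translocation ratio, normalised to the plate median, converted to robust z-scores and averaged across two replicates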
Scale: p65 translocation robust z-score: higher = more nuclear NF-kappaB p65 after LPS than the plate median; nuclear/cytoplasmic p65 ratio: higher = more nuclear NF-kappaB p65
Active means: 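Called active when z exceeds 3.3 or falls under -1.56 (median of Tlr4 controls), giving activity score of at least 50; no calls for control wells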
Calls: active = hit (p65 shift raised or lowered); inactive = no clear change
The whole screen tested about 17,000 reagents; shown is an unselected part. In the full data, 762 (4.5%) are marked active. 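Active calls include both raised and lowered p65 entry, mostly lowered; wells with fewer than 50 cells lack a z-score.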 The raw values are shown without normalisation.

| gene symbol | p65 translocation robust z-score | nuclear/cytoplasmic p65 ratio, rep 1 | nuclear/cytoplasmic p65 ratio, rep 2 | low cell count flag | Outcome |
| --- | --- | --- | --- | --- | --- |
| Hgf | 0.88 | 1.52 | 1.52 | enough cells to score | inactive |
| Ugt2b5 | 0.04 | 1.42 | 1.23 | enough cells to score | inactive |
| Dpysl3 | – | 1.59 | 1.13 | fewer than 50 cells per well; well left out of scoring | inactive |
| Wars2 | -0.45 | 1.31 | 1.2 | enough cells to score | inactive |
| Mapk1ip1 | – | 1.48 | 1.25 | fewer than 50 cells per well; well left out of scoring | inactive |
| Ppp1r2-ps9 | 0.4 | 1.66 | 1.68 | enough cells to score | inactive |
| Exosc6 | – | 1.4 | 1.4 | fewer than 50 cells per well; well left out of scoring | inactive |
| Tceal8 | – | 1.4 | 1.54 | fewer than 50 cells per well; well left out of scoring | inactive |
| Mx2 | 0.22 | 1.52 | 1.33 | enough cells to score | inactive |
| Gabpb1 | -1.1 | 1.3 | 1.22 | enough cells to score | inactive |
| Prss27 | 1.31 | 2.12 | 1.68 | enough cells to score | inactive |
| Twnk | 0.83 | 1.57 | 1.52 | enough cells to score | inactive |
| Or5b12b | -0.84 | 1.51 | 1.29 | enough cells to score | inactive |
| Stfa1 | -0.9 | 1.3 | 1.23 | enough cells to score | inactive |
| Zgrf1 | 0.8 | 1.36 | 1.39 | enough cells to score | inactive |
| Npas3 | 0.47 | 1.79 | 1.59 | enough cells to score | inactive |
| Foxj1 | -0.95 | 1.33 | 1.23 | enough cells to score | inactive |
| Abcb4 | -0.75 | 1.51 | 1.49 | enough cells to score | inactive |
| Cntrl | 0.32 | 1.47 | 1.48 | enough cells to score | inactive |
| Tnfrsf17 | -0.68 | 1.41 | 1.44 | enough cells to score | inactive |
| Cdk10 | -0.05 | 1.64 | 1.41 | enough cells to score | inactive |

No new results follow: 4 of the entries above.
| gene symbol | p65 translocation robust z-score | nuclear/cytoplasmic p65 ratio, rep 1 | nuclear/cytoplasmic p65 ratio, rep 2 | low cell count flag | Outcome |
| --- | --- | --- | --- | --- | --- |
| Foxj1 | -0.95 | 1.33 | 1.23 | enough cells to score | inactive |
| Abcb4 | -0.75 | 1.51 | 1.49 | enough cells to score | inactive |
| Cntrl | 0.32 | 1.47 | 1.48 | enough cells to score | inactive |
| Tnfrsf17 | -0.68 | 1.41 | 1.44 | enough cells to score | inactive |

Further records:
| gene symbol | p65 translocation robust z-score | nuclear/cytoplasmic p65 ratio, rep 1 | nuclear/cytoplasmic p65 ratio, rep 2 | low cell count flag | Outcome |
| --- | --- | --- | --- | --- | --- |
| Uvrag | 1.16 | 1.7 | 1.76 | enough cells to score | inactive |
| Gm10336 | 0.91 | 1.66 | 1.72 | enough cells to score | inactive |
| Nup43 | – | 1.34 | 1.44 | fewer than 50 cells per well; well left out of scoring | inactive |
| Map3k1 | 0.09 | 1.68 | 1.41 | enough cells to score | inactive |
| Il1rn | -0.68 | 1.33 | 1.34 | enough cells to score | inactive |
| Phf11d | -1.52 | 1.22 | 1.67 | enough cells to score | inactive |
| Jakmip1 | -1.71 | 1.13 | 1.24 | enough cells to score | active |
| Macroh2a2 | -1.04 | 1.27 | 1.26 | enough cells to score | inactive |
| Api5 | -0.45 | 1.59 | 1.51 | enough cells to score | inactive |
| Shisa4 | 0.37 | 1.4 | 1.68 | enough cells to score | inactive |
| Vmn1r25 | – | 1.5 | 1.35 | fewer than 50 cells per well; well left out of scoring | inactive |
| Serpina1e | 0.31 | 1.63 | 1.57 | enough cells to score | inactive |
| Plpbp | 1.58 | 1.61 | 1.37 | enough cells to score | inactive |
| Syn3 | – | 1.28 | 1.32 | fewer than 50 cells per well; well left out of scoring | inactive |
| Gch1 | 0.21 | 1.47 | 1.4 | enough cells to score | inactive |
| Ctnna1 | -1.08 | 1.7 | 1.24 | enough cells to score | inactive |
| Hipk1 | – | 1.56 | 1.53 | fewer than 50 cells per well; well left out of scoring | inactive |
| Pou4f1 | -1.35 | 1.23 | 1.31 | enough cells to score | inactive |
| Tpo | -0.2 | 1.45 | 1.51 | enough cells to score | inactive |
